Compound in the experiment: CC1Cc2ccccc2N1C(=O)C1CCCN(C1)C(=O)CCl (mixture of isomers) [TRIM25 ligand 11 (diastereomer mixture)]
The experiment in a line: probe-labelled cysteine peptide fold change vs DMSO (competition) (log2 fold change); higher = less target engagement (more negative = stronger competition). Particulars: THP-1, incubation time: 4 h.

Chains of the proteins cited; added tags and fusions are not shown. Lines headed by an entry give the natural chain unless they say otherwise; changes in a name come on top.
UniProt Q9NU22: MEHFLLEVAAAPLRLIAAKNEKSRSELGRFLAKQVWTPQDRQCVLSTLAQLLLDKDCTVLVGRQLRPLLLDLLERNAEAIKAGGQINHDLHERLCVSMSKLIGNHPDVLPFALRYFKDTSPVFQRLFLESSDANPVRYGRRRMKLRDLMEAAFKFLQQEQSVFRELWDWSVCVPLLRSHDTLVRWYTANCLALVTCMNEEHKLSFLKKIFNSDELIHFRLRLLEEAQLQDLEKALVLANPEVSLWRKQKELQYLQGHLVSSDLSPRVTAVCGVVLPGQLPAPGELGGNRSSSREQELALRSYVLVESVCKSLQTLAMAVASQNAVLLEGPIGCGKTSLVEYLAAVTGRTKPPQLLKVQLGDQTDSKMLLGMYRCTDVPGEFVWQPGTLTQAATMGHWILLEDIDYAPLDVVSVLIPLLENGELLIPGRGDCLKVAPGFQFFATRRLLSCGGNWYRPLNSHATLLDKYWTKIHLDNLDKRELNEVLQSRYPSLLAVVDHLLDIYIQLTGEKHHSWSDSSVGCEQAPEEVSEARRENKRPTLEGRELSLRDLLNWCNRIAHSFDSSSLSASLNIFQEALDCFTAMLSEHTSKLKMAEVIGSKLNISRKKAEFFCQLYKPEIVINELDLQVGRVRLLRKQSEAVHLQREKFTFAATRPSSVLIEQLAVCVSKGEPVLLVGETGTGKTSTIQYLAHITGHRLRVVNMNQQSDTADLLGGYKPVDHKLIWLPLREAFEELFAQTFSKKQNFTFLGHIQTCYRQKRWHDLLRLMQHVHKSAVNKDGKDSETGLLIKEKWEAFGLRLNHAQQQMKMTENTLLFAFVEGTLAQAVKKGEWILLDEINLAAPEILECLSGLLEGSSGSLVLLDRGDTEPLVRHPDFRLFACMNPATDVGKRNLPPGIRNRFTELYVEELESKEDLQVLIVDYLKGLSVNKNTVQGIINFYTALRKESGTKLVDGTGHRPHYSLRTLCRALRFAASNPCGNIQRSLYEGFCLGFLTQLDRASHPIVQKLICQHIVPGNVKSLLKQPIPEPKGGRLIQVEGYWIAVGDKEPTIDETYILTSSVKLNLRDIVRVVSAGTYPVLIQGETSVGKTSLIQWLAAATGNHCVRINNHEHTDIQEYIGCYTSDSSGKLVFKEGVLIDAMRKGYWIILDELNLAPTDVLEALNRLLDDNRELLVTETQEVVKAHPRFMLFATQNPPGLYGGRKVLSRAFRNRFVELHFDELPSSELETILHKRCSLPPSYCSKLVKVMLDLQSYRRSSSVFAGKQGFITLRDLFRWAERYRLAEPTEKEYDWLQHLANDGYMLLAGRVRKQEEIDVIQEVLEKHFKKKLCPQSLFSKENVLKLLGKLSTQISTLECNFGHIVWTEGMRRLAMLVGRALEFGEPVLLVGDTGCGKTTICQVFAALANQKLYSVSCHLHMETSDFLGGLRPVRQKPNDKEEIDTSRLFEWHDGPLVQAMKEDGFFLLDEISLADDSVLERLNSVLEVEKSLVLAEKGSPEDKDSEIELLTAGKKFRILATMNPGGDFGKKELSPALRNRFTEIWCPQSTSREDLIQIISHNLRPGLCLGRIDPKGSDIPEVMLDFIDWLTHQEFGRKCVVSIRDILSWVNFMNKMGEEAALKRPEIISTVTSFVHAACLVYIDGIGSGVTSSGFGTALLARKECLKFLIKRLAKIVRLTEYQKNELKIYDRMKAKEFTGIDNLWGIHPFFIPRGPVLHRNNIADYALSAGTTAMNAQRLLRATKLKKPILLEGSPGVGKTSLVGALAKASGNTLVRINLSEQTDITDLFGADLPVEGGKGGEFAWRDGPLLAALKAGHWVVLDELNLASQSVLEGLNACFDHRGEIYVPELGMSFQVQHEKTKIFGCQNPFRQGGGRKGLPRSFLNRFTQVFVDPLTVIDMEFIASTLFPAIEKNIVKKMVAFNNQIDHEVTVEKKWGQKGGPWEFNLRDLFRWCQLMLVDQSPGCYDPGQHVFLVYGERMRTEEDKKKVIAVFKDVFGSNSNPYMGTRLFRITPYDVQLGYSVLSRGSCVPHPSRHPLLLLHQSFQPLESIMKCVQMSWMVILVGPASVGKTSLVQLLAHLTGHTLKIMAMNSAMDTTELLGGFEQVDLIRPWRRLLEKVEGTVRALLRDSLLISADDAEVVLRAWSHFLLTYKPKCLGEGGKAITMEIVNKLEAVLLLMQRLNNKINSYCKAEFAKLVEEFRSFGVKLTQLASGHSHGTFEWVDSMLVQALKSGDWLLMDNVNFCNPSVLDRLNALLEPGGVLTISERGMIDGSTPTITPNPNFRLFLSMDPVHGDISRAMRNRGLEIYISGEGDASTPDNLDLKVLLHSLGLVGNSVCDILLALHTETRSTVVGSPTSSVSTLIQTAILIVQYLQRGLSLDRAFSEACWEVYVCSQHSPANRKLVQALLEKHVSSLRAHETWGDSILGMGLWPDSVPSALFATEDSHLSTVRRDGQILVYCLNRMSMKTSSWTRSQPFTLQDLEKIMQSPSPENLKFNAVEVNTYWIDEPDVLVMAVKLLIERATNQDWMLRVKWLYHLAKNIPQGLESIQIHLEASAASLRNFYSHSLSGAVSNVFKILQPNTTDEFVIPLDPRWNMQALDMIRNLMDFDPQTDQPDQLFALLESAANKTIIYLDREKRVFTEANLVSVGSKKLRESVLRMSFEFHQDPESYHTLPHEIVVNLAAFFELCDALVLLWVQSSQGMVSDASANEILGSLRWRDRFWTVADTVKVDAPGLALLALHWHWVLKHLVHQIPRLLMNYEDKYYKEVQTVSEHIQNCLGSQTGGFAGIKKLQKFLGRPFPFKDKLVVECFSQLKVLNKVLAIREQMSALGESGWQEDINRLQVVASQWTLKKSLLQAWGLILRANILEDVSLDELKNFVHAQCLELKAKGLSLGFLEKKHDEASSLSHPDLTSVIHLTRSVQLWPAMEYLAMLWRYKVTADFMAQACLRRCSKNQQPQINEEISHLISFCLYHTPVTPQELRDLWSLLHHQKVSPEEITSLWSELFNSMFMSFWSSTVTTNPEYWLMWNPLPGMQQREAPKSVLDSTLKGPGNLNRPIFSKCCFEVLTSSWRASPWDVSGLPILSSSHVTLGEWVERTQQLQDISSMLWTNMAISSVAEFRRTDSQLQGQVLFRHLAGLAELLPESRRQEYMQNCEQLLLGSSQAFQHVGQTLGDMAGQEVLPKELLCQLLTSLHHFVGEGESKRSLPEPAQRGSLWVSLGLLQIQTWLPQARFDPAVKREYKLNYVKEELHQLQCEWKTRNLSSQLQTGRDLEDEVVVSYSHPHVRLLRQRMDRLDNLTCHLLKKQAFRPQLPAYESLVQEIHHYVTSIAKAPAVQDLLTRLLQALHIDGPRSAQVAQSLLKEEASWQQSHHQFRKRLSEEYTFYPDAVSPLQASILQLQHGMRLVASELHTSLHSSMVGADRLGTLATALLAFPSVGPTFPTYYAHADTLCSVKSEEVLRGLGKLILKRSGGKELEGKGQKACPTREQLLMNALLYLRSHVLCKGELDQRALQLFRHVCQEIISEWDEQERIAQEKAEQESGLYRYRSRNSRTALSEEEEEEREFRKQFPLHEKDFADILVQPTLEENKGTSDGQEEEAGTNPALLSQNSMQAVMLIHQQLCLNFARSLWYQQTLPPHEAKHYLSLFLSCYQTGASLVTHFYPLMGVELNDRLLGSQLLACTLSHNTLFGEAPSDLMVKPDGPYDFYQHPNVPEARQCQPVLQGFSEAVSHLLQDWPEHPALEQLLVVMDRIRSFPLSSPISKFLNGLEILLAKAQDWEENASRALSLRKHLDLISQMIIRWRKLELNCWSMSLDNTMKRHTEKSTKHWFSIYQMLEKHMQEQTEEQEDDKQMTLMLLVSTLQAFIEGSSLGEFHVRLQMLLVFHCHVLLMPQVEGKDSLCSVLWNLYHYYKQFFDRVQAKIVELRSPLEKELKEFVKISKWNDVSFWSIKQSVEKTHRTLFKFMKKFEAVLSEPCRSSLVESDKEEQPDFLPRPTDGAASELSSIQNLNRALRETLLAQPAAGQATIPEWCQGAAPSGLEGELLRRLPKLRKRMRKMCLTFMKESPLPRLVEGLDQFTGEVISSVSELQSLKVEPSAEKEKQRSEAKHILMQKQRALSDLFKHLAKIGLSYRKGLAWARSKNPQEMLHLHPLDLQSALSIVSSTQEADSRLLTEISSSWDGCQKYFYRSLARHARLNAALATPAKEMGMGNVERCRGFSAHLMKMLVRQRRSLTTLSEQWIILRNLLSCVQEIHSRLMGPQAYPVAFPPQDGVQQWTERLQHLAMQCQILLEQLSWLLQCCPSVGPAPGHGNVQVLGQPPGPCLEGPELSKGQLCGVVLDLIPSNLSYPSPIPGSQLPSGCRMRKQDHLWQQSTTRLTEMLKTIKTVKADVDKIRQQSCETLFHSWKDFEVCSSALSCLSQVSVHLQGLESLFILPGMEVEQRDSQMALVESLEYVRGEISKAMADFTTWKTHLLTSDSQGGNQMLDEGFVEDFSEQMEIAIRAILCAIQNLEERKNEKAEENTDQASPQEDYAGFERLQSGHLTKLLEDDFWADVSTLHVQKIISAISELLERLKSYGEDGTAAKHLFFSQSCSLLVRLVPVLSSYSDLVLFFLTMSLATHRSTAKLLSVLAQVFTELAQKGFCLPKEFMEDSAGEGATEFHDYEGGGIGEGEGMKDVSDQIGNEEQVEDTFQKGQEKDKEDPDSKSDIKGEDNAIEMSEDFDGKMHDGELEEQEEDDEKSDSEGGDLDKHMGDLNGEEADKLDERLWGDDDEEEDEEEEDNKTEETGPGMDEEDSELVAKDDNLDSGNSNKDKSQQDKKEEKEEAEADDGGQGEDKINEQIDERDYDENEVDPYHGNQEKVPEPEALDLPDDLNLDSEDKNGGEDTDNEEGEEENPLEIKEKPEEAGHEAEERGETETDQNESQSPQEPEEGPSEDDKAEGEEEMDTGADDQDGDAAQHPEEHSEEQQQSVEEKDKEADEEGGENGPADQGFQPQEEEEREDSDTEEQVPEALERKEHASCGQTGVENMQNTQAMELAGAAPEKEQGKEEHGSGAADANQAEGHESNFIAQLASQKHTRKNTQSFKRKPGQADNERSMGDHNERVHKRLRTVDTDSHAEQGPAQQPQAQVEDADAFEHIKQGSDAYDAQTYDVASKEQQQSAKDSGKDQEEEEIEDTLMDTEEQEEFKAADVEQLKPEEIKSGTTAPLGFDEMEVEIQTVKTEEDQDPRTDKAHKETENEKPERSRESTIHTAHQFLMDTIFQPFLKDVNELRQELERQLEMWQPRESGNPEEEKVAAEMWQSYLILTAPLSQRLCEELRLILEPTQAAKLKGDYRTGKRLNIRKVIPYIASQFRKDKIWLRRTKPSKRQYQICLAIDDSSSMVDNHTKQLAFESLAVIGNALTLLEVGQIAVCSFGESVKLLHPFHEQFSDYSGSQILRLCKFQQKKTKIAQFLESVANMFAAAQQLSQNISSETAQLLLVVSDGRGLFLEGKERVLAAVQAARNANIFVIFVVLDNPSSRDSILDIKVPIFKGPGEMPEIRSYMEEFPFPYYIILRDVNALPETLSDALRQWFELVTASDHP
UniProt P33991: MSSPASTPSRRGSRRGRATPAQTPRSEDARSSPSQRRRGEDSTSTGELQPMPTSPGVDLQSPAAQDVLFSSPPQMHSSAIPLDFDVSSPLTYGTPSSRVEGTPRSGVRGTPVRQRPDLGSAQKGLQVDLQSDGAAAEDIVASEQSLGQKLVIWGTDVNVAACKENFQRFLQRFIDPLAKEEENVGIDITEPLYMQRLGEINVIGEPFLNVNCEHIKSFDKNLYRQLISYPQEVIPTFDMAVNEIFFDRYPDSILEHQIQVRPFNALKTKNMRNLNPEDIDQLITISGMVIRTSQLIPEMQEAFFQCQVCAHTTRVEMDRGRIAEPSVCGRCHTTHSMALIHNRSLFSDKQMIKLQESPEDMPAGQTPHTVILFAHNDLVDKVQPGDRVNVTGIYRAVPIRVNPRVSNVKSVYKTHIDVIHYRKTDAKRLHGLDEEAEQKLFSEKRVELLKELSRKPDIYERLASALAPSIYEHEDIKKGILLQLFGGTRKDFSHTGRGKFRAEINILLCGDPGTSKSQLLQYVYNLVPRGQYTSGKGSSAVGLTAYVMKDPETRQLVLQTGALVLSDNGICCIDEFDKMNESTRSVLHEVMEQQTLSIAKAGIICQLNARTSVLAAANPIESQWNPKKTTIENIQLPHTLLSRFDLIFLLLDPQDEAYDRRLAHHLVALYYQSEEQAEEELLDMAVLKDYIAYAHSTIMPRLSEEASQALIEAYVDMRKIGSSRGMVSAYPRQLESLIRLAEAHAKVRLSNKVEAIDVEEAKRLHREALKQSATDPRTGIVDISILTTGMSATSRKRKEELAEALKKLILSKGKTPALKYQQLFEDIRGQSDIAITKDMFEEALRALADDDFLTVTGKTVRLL

The other results are listed elsewhere or left out.
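Also: competitive chemoproteomic profiling in live THP-1 cells with an iodoacetamide desthiobiotin (IA-DTB) probe, comparing probe-labelled peptide intensities in compound-treated cells against DMSO-treated controls.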

As to “MDN1_Q9NU22_3263_EELHQLQCEWK (UniProt Q9NU22)”, the “probe-labelled cysteine peptide fold change” value reads like this: (10 µM) 0.0646; (50 µM) 0.0191.

Regarding “MED1_Q15648_424_HQVAYNTLIGSCVK (UniProt Q15648)”, the “probe-labelled cysteine peptide fold change” value is -0.0377 (10 µM) and 0.186 (50 µM).

For the target “METAP2_P50579_263_IIDCAFTVTFNPK (UniProt P50579)”, the “probe-labelled cysteine peptide fold change” value is, setting by setting: (10 µM) 0.0495; (50 µM) 0.114.

Regarding “MCMBP_Q9BTE3_3_PCGEDWLSHPLGIVQGFFAQNGVNPDWEK (UniProt Q9BTE3)”, the “probe-labelled cysteine peptide fold change” value (10 µM) was -0.333 and the “probe-labelled cysteine peptide fold change” value (50 µM) is -0.445.

“METTL14_Q9HCE5_288_EHCLMGIK (UniProt Q9HCE5)”: the “probe-labelled cysteine peptide fold change” value reads like this: (10 µM) -0.0706; (50 µM) 0.0358.

Turning to “MCM5_P33992_221_CVDFQTLK (UniProt P33992)”, the “probe-labelled cysteine peptide fold change” value (10 µM) is -0.0141 and the “probe-labelled cysteine peptide fold change” value (50 µM) stood at 0.0951.

“MFN2_O95140_281_CTSFLVDELGVVDR (UniProt O95140)”: the “probe-labelled cysteine peptide fold change” value is, setting by setting: (10 µM) 0.0964; (50 µM) 0.0653.

For the target “MDN1_Q9NU22_333_SLQTLAMAVASQNAVLLEGPIGCGK (UniProt Q9NU22)”, the “probe-labelled cysteine peptide fold change” value runs as follows: (10 µM) -0.0868; (50 µM) -0.0522.

Regarding “MCM4_P33991_309_TSQLIPEMQEAFFQCQVCAHTTR (UniProt P33991)”, the “probe-labelled cysteine peptide fold change” value is -0.0176 (10 µM) and 0.177 (50 µM).

For “MDH2_P40926_285_SQETECTYFSTPLLLGKK (UniProt P40926)”, the “probe-labelled cysteine peptide fold change” value reads like this: (10 µM) -0.328; (50 µM) -0.222.

As to “MED1_Q15648_373_FYAALPGQQHCYFLNK (UniProt Q15648)”, the “probe-labelled cysteine peptide fold change” value was 0.148 (10 µM) and 0.228 (50 µM).

As for “MCM8_Q9UJA3_411_LIVNSLCPVIFGHELVK (UniProt Q9UJA3)”, the “probe-labelled cysteine peptide fold change” value runs as follows: (10 µM) -0.166; (50 µM) 0.0688.

As to “MCM4_P33991_509_FRAEINILLCGDPGTSK (UniProt P33991)”, the “probe-labelled cysteine peptide fold change” value reads like this: (10 µM) -0.162; (50 µM) 0.0508.

“MFSD5_Q6N075_390_VPLHSLACLGLLVLHDSDRK (UniProt Q6N075)”: the “probe-labelled cysteine peptide fold change” value was 0.0253 (10 µM) and -0.0131 (50 µM).

For the target “MCM7_P33993_378_GNINICLMGDPGVAK (UniProt P33993)”, the “probe-labelled cysteine peptide fold change” value was -0.107 (10 µM) and -0.127 (50 µM).

In the case of “METTL7B_Q6UX53_202+203_HIGDGCCLTR (UniProt Q6UX53)”, the “probe-labelled cysteine peptide fold change” value (10 µM) was 0.0706 and the “probe-labelled cysteine peptide fold change” value (50 µM) was -0.0175.

Take “MCCC1_Q96RQ3_509_ESLCQAALGLILK (UniProt Q96RQ3)”: the “probe-labelled cysteine peptide fold change” value by setting is: (10 µM) 0.292; (50 µM) -0.195.

“MDH1_P40925_137_VIVVGNPANTNCLTASK (UniProt P40925)”: the “probe-labelled cysteine peptide fold change” value reads like this: (10 µM) 0.00719; (50 µM) -0.0592.

Regarding “MCM6_Q14566_161_THPVHPELVSGTFLCLDCQTVIRDVEQQFK (UniProt Q14566)”, the “probe-labelled cysteine peptide fold change” value by setting is: (10 µM) -0.319; (50 µM) 0.0688.

As to “METAP1_P53582_36+40_LGIQGSYFCSQECFK (UniProt P53582)”, the “probe-labelled cysteine peptide fold change” value is -0.142 (10 µM) and -0.0326 (50 µM).

“MDH2_P40926_93_GCDVVVIPAGVPR (UniProt P40926)”: the “probe-labelled cysteine peptide fold change” value by setting is: (10 µM) -0.0615; (50 µM) 0.0728.

Values taken from the supplement of paper PMC12067093, “Discovery and optimisation of a covalent ligand for TRIM25 and its application to targeted protein ubiquitination” (Chemical Science, 2025).
